Measurements taken from US10265257B2, “Personal care composition” (Innospec Limited, priority 2007, dated 2019).

Experiment: Foaming test in capped measuring cylinder
Format: physicochemical
Details: graduated cylinder, after 10 inversions

Substance | foam character
sodium cocoylmethylisethionate [SCMI] | rich and creamy
sodium laureth sulfate [SLES, reference compound] | open and “watery”
